No constants are given. Whether binding was seen depends on the method and setting. Binding seen in cells or lysates may run through a third protein. Here binding means that the protein was enriched with, or labelled near, the bait; the list need not be complete.
Target: EphA2-V5-TurboID (wild-type EphA2) (human) (UniProt P29317)
Assay: proximity labelling; EphA2-TurboID constructs in cells; biotin with or without HGF for 1 h; streptavidin-agarose beads; biotinylated proteins analysed by western blotting

Amino acid sequences for entries named in this document (tags omitted). Residues count along the entry.
UniProt P29317, residues 24-976: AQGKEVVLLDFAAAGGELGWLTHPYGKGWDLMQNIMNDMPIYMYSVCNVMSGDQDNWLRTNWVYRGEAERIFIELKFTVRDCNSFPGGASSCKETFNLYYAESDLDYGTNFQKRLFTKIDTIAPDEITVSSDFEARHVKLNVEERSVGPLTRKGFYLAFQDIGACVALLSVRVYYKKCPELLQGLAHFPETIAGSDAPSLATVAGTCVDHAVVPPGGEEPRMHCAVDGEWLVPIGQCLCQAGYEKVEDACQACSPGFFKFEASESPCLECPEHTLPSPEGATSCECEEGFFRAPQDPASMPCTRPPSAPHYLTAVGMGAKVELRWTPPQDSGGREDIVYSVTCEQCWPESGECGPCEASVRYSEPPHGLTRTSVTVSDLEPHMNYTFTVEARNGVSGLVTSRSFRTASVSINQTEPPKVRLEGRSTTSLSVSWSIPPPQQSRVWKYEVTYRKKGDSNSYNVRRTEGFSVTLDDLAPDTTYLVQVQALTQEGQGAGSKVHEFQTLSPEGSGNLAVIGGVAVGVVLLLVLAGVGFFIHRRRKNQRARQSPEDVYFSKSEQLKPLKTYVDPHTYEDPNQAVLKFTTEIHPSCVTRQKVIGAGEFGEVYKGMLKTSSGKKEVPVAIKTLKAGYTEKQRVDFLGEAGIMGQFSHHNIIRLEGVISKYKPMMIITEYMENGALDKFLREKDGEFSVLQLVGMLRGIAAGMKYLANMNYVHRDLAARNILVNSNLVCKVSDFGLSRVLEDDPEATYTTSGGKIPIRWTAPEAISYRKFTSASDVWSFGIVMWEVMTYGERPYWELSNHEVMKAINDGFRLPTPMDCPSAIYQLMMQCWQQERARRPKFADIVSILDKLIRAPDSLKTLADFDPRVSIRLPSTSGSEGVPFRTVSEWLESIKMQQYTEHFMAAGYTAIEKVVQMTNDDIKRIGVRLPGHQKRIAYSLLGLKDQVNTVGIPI
UniProt Q96HA1: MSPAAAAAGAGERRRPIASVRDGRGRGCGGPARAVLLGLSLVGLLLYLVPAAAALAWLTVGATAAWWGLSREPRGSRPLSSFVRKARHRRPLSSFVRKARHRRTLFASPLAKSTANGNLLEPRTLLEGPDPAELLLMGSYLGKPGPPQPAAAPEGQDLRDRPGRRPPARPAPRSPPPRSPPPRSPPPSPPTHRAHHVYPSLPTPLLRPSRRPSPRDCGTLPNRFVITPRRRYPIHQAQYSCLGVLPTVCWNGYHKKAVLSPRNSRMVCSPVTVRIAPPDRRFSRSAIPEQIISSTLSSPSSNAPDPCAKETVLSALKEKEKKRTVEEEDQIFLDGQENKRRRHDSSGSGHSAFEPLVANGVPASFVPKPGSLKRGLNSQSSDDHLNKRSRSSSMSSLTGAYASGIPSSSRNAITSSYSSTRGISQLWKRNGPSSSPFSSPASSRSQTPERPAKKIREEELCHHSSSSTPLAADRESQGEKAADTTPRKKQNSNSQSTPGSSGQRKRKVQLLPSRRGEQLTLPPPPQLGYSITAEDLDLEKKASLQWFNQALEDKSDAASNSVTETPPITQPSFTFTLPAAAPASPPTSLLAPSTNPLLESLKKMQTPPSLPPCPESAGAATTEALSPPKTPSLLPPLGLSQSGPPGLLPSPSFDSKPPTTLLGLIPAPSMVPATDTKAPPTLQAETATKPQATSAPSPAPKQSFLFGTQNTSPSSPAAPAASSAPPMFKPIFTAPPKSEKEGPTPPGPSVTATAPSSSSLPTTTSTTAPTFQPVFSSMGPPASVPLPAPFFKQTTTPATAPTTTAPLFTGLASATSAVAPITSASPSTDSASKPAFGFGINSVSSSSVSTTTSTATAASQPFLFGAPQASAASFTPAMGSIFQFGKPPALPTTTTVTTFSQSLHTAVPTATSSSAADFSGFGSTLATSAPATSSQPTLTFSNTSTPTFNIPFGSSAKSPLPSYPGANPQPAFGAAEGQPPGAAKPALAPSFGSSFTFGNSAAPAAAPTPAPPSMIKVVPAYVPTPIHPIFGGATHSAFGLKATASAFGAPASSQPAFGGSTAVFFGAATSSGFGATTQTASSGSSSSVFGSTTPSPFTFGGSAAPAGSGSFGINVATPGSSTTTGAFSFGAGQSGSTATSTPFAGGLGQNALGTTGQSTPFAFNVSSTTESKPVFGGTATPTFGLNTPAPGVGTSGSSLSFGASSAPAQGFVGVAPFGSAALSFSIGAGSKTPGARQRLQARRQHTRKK
UniProt P49792: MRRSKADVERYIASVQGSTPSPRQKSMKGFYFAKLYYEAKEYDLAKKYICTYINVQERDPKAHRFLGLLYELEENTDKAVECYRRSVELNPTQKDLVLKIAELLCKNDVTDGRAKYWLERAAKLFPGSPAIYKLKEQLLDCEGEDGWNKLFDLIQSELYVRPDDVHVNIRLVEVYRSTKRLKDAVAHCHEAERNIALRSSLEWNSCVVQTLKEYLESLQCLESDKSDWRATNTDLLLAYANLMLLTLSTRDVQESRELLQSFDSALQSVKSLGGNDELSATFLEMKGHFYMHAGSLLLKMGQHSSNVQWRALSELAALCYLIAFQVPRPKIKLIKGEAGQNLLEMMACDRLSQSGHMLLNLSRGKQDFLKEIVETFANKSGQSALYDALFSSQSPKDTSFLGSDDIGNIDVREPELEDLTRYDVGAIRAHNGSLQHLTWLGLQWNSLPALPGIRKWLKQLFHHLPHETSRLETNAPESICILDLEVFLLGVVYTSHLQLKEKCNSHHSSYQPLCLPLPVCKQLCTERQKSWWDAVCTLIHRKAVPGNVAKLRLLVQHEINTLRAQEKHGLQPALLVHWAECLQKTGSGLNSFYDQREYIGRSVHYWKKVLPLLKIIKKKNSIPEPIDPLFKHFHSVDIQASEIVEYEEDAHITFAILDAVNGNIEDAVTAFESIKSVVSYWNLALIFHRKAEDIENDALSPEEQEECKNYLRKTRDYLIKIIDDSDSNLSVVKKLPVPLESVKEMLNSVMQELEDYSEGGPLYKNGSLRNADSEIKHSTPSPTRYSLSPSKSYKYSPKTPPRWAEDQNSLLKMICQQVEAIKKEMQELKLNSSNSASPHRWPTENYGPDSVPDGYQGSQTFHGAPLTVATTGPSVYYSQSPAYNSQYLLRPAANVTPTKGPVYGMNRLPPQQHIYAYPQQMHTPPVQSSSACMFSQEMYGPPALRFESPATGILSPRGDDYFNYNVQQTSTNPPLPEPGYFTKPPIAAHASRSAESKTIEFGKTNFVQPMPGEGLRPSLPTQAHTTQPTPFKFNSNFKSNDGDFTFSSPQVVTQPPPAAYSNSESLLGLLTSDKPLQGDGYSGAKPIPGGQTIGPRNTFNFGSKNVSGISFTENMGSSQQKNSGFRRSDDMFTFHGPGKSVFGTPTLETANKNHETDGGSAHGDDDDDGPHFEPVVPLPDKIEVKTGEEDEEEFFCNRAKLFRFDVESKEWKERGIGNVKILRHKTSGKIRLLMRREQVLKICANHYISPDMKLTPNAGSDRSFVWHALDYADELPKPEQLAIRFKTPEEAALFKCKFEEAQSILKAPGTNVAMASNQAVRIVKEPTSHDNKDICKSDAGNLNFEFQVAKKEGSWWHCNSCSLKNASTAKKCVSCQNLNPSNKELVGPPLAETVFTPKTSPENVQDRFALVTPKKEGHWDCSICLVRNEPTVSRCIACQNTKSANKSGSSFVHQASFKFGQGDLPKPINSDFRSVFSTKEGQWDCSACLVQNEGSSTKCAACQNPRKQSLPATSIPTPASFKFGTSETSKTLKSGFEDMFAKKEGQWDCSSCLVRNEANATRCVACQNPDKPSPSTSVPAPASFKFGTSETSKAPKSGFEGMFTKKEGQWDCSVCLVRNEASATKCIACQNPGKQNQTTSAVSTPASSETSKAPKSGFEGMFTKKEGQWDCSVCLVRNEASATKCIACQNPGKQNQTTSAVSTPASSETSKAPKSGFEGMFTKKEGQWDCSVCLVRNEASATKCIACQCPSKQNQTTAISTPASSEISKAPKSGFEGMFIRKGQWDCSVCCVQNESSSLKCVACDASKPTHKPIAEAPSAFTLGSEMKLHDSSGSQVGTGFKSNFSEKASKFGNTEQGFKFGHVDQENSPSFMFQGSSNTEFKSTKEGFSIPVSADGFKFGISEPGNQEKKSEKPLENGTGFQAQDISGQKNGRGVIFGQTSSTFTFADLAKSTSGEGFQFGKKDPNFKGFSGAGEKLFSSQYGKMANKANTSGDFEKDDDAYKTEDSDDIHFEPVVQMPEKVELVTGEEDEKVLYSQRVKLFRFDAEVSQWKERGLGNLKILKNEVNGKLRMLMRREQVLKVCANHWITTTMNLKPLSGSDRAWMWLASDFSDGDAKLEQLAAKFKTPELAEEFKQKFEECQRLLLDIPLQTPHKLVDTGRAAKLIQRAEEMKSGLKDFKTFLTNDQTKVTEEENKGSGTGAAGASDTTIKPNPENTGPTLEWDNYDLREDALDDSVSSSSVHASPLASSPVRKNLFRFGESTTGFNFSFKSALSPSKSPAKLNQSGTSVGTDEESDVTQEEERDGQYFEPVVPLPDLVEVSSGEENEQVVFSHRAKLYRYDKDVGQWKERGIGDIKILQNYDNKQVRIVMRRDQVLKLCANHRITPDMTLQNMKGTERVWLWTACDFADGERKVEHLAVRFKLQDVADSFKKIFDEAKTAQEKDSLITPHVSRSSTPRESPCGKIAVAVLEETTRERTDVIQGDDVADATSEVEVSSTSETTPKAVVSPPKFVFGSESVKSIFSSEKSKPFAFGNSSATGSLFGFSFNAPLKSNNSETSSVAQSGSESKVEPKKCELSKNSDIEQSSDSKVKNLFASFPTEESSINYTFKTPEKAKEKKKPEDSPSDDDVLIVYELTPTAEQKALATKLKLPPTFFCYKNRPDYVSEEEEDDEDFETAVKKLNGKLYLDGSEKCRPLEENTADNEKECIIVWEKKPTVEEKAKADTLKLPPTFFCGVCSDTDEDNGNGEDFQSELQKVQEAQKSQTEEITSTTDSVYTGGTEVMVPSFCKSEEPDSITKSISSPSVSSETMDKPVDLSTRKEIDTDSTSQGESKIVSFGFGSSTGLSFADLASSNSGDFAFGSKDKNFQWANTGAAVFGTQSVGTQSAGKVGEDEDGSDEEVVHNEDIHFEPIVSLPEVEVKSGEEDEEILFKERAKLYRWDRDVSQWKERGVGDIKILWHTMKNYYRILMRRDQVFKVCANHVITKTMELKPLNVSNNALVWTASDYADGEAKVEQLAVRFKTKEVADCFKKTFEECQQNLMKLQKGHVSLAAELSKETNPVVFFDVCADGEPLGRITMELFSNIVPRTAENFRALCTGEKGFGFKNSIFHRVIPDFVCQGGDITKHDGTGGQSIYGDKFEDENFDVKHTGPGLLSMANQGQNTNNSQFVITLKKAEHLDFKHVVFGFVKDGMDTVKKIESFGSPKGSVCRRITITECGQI

Molecule | binding
POM121 (from UniProt Q96HA1 1-1249) | binds
RanBP2 (from UniProt P49792 1-3224) | binds
Nup133 (protein, UniProt Q8WUM0 1-1156) MFPAAPSPRTPGTGSRRGPLAGLGPGSTPRTASRKGLPLGSAVSSPVLFSPVGRRSSLSSRGTPTRMFPHHSITESVNYDVKTFGSSLPVKVMEALTLAEVDDQLTINIDEGGWACLVCKEKLIIWKIALSPITKLSVCKELQLPPSDFHWSADLVALSYSSPSGEAHSTQAVAVMVATREGSIRYWPSLAGEDTYTEAFVDSGGDKTYSFLTAVQGGSFILSSSGSQLIRLIPESSGKIHQHILPQGQGMLSGIGRKVSSLFGILSPSSDLTLSSVLWDRERSSFYSLTSSNISKWELDDSSEKHAYSWDINRALKENITDAIWGSESNYEAIKEGVNIRYLDLKQNCDGLVILAAAWHSADNPCLIYYSLITIEDNGCQMSDAVTVEVTQYNPPFQSEDLILCQLTVPNFSNQTAYLYNESAVYVCSTGTGKFSLPQEKIVFNAQGDSVLGAGACGGVPIIFSRNSGLVSITSRENVSILAEDLEGSLASSVAGPNSESMIFETTTKNETIAQEDKIKLLKAAFLQYCRKDLGHAQMVVDELFSSHSDLDSDSELDRAVTQISVDLMDDYPASDPRWAESVPEEAPGFSNTSLIILHQLEDKMKAHSFLMDFIHQVGLFGRLGSFPVRGTPMATRLLLCEHAEKLSAAIVLKNHHSRLSDLVNTAILIALNKREYEIPSNLTPADVFFREVSQVDTICECLLEHEEQVLRDAPMDSIEWAEVVINVNNILKDMLQAASHYRQNRNSLYRREESLEKEPEYVPWTATSGPGGIRTVIIRQHEIVLKVAYPQADSNLRNIVTEQLVALIDCFLDGYVSQLKSVDKSSNRERYDNLEMEYLQKRSDLLSPLLSLGQYLWAASLAEKYCDFDILVQMCEQTDNQSRLQRYMTQFADQNFSDFLFRWYLEKGKRGKLLSQPISQHGQLANFLQAHEHLSWLHEINSQELEKAHATLLGLANMETRYFAKKKTLLGLSKLAALASDFSEDMLQEKIEEMAEQERFLLHQETLPEQLLAEKQLNLSAMPVLTAPQLIGLYICEENRRANEYDFKKALDLLEYIDEEEDININDLKLEILCKALQRDNWSSSDGKDDPIEVSKDSIFVKILQKLLKDGIQLSEYLPEVKDLLQADQLGSLKSNPYFEFVLKANYEYYVQGQI | binds
Nup50 (protein, UniProt Q9UKX7 1-468) MAKRNAEKELTDRNWDQEDEAEEVGTFSMASEEVLKNRAIKKAKRRNVGFESDTGGAFKGFKGLVVPSGGGRFSGFGSGAGGKPLEGLSNGNNITSAPPFASAKAAADPKVAFGSLAANGPTTLVDKVSNPKTNGDSQQPSSSGLASSKACVGNAYHKQLAALNCSVRDWIVKHVNTNPLCDLTPIFKDYEKYLANIEQQHGNSGRNSESESNKVAAETQSPSLFGSTKLQQESTFLFHGNKTEDTPDKKMEVASEKKTDPSSLGATSASFNFGKKVDSSVLGSLSSVPLTGFSFSPGNSSLFGKDTTQSKPVSSPFPTKPLEGQAEGDSGECKGGDEEENDEPPKVVVTEVKEEDAFYSKKCKLFYKKDNEFKEKGIGTLHLKPTANQKTQLLVRADTNLGNILLNVLIPPNMPCTRTGKNNVLIVCVPNPPIDEKNATMPVTMLIRVKTSEDADELHKILLEKKDA | binds
